Measurements published in the supplement of paper PMC6411743.
± gives the standard deviation of the averaged measurements. The list shows a part of the results.

The chains behind the UniProt entries cited, without tags or fusion partners. Where a name states a change or a piece, a line headed by the entry shows the natural chain unless it says otherwise.
UniProt Q04726: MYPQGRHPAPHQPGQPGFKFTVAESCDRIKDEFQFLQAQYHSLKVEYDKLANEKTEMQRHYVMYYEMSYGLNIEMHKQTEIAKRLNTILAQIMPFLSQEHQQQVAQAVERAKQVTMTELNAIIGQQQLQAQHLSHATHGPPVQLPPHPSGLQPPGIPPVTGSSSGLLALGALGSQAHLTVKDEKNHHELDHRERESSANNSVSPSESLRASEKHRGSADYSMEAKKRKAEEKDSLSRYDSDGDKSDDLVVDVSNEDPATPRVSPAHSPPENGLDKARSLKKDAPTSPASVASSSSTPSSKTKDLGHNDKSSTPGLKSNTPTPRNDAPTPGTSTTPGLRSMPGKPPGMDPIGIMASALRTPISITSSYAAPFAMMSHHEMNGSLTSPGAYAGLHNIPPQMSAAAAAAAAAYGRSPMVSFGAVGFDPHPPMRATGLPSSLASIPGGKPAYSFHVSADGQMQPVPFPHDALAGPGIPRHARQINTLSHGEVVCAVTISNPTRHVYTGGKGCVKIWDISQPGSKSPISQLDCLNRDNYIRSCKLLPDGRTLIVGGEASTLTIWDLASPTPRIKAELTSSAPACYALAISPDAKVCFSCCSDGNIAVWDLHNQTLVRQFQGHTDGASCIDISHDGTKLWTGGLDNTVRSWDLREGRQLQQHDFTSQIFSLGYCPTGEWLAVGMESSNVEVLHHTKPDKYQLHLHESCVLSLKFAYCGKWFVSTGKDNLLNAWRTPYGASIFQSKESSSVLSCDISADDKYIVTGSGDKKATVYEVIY
UniProt Q9BXC9: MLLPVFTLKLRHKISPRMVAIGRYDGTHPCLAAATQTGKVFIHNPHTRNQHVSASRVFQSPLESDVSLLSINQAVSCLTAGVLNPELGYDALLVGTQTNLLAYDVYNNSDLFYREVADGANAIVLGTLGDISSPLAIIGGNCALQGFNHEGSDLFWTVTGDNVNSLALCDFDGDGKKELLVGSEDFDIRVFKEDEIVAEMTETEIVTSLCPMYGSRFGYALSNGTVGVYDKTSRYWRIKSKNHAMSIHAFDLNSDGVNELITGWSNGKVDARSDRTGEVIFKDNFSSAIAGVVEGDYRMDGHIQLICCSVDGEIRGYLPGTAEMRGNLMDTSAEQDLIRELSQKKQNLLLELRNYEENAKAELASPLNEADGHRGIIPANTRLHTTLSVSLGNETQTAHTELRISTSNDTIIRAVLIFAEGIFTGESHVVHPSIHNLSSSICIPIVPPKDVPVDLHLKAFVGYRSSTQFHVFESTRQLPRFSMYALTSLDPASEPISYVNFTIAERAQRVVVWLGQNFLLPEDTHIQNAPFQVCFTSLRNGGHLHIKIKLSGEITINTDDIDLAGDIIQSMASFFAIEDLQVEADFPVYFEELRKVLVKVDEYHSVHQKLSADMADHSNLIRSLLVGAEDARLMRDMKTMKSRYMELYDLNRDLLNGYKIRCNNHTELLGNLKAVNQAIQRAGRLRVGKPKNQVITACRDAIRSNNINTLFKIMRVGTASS
UniProt P31321, whole entry: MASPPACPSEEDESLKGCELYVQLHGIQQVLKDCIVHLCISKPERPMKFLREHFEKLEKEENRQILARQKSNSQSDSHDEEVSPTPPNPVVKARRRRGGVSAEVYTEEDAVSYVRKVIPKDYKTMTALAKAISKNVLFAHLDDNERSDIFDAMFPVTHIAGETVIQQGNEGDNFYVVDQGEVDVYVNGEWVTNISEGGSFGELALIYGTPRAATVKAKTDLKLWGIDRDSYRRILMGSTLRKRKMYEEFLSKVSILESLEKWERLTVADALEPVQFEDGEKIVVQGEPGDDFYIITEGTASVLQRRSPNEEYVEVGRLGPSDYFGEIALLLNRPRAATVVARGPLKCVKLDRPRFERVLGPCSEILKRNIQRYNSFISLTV
UniProt O95232: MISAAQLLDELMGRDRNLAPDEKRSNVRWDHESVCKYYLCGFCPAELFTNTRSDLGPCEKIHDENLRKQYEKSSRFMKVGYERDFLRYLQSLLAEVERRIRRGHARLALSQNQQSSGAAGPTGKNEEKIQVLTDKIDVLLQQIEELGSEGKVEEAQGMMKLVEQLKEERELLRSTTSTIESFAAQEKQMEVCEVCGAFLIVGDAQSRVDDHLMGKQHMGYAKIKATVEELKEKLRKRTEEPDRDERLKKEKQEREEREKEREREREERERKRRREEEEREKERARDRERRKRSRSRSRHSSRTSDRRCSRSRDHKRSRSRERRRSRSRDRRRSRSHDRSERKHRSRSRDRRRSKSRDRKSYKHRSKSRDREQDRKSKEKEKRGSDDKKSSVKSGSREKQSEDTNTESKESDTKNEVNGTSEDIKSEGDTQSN
UniProt Q13620, whole entry: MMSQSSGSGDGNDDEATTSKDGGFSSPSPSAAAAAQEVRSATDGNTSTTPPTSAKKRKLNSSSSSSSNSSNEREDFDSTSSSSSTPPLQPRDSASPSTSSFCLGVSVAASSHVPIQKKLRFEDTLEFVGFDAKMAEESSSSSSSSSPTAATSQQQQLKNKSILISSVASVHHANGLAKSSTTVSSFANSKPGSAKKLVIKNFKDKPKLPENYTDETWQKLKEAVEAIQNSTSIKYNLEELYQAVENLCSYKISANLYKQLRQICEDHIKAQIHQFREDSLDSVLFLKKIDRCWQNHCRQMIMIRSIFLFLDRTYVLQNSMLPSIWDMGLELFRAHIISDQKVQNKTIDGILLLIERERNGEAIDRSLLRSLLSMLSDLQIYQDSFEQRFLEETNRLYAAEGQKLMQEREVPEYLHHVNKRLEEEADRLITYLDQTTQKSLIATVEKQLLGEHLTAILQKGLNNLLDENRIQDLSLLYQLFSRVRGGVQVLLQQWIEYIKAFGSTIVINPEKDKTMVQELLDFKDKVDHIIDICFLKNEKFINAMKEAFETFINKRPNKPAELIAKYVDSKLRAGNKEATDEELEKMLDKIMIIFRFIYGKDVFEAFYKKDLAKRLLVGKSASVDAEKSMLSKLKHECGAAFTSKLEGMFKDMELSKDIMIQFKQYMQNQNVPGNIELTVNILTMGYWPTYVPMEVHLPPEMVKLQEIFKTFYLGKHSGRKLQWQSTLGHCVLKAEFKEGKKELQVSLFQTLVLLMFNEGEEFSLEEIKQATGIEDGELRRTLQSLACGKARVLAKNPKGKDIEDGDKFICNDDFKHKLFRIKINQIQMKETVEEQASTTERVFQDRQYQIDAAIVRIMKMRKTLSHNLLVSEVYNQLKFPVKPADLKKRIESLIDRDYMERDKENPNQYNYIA
UniProt Q9H0R4: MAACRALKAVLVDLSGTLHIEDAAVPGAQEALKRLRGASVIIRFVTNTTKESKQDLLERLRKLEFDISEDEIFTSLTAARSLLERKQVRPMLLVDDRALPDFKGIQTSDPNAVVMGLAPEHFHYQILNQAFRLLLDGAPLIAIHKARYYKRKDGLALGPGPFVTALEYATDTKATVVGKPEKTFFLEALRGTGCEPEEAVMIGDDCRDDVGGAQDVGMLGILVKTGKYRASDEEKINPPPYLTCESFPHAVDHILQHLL
UniProt P07992: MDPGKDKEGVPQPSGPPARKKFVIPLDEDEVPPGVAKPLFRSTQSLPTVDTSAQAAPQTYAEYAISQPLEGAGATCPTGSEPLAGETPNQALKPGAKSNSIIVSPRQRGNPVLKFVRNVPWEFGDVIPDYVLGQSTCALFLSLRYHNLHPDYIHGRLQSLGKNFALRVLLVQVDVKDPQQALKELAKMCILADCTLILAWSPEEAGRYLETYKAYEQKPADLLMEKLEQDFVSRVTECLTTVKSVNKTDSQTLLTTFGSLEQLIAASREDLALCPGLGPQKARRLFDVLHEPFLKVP
UniProt Q7RTR2: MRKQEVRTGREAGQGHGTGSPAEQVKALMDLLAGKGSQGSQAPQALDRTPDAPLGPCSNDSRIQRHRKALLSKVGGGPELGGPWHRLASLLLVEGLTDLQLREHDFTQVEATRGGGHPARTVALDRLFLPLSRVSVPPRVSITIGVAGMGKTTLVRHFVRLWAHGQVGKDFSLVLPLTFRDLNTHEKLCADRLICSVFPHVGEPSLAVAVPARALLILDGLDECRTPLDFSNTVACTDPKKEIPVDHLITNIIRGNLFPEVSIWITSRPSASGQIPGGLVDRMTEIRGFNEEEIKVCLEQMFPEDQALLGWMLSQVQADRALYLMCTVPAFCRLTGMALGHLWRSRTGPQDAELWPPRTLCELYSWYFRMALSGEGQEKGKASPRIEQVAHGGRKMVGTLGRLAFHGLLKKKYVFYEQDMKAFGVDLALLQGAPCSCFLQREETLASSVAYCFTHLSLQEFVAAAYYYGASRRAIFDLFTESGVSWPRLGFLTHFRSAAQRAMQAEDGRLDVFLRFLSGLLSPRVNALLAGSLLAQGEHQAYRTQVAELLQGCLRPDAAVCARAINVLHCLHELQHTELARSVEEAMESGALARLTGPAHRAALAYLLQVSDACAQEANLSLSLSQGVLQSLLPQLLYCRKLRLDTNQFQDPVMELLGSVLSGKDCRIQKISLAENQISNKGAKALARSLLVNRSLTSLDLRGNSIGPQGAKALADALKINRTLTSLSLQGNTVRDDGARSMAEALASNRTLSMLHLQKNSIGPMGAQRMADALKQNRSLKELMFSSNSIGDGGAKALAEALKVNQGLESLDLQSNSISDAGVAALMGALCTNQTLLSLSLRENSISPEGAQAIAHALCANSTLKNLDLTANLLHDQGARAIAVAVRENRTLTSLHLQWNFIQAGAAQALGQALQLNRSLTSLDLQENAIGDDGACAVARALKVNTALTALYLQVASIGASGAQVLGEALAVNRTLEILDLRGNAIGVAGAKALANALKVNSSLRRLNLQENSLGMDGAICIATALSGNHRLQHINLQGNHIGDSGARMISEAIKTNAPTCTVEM
UniProt O43598: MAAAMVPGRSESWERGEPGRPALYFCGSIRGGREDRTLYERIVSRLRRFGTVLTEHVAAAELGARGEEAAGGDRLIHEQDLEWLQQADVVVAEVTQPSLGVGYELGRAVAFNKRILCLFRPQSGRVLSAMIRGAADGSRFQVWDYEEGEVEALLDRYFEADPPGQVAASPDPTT
UniProt Q01469, whole entry: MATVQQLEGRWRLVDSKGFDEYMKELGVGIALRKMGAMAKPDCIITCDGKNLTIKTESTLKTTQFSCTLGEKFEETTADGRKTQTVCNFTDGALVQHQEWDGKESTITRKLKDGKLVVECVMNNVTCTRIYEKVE
UniProt Q9NQ48: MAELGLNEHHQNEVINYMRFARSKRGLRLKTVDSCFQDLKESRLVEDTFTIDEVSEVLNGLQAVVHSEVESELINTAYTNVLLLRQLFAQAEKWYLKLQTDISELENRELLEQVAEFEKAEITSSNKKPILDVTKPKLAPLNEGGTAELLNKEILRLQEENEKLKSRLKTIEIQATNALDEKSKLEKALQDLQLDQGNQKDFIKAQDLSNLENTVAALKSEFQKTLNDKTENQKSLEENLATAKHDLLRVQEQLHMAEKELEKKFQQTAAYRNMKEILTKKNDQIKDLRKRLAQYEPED
UniProt Q8NEJ9: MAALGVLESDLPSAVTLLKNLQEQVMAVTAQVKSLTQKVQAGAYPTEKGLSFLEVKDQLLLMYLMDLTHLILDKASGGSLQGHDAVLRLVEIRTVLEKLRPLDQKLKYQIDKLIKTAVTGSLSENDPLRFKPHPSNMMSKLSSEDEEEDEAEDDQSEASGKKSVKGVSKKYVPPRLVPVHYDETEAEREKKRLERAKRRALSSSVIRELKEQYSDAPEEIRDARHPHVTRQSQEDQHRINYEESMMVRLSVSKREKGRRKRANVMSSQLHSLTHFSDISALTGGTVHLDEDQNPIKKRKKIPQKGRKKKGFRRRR
UniProt Q9NPR2: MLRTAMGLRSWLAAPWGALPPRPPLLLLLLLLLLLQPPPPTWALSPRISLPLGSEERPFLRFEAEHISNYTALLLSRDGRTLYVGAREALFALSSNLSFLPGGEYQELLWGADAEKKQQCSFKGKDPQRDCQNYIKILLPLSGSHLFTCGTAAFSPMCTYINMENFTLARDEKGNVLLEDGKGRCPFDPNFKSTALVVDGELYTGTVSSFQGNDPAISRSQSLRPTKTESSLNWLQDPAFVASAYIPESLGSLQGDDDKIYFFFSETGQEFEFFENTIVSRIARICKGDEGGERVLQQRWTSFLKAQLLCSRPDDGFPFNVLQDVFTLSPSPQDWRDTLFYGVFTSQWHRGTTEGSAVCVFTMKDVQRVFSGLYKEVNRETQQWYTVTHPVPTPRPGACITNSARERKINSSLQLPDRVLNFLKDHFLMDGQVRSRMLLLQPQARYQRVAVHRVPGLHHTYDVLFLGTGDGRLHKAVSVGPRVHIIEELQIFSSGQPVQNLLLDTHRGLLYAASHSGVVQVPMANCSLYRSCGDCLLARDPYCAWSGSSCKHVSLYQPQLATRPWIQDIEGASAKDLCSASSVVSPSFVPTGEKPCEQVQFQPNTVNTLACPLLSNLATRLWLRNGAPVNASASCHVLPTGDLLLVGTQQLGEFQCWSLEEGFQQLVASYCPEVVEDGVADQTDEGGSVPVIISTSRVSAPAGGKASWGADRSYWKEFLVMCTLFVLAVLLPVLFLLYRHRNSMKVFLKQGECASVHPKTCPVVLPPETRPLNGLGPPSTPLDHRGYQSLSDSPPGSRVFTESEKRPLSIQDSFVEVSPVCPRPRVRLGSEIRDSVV

Compound: Nc1nc2c(ncn2[C@@H]2O[C@H](COP(=O)(O)OP(=O)(O)OP(=O)(O)O)[C@@H](O)[C@H]2O)c(=O)[nH]1 [guanosine triphosphate]
Test: NP40-soluble protein abundance relative to vehicle (solubility fold change) (ratio); higher = more soluble protein in presence of GTP
Outline: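 Values are fold changes against the detergent-processed vehicle, based on vsn-normalised intensities. Jurkat crude lysate was treated at eight concentrations from 0.1 to 10 mM (10 min at room temperature, then 3 min at 37 °C), solubilised with 0.8% NP40 and benzonase, ultracentrifuged and analysed by TMT-labelled LC-MS/MS over three independent experiments.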

Target | NP40-soluble protein abundance (concentration: 0.1mM) | NP40-soluble protein abundance (concentration: 0.5mM) | NP40-soluble protein abundance (concentration: 1mM) | NP40-soluble protein abundance (concentration: 2mM) | NP40-soluble protein abundance (concentration: 4mM) | NP40-soluble protein abundance (concentration: 6mM) | NP40-soluble protein abundance (concentration: 8mM) | NP40-soluble protein abundance (concentration: 10mM)
H0YKT5 and related entries (UniProt Q04726) | 0.975 ± 0.057 | 0.975 ± 0.069 | 0.973 ± 0.077 | 0.919 ± 0.086 | 0.91 ± 0.072 | 0.945 ± 0.068 | 1 ± 0.081 | 0.957 ± 0.056
H3BRL0 and related entries (UniProt Q9BXC9) | 1.02 ± 0.14 | 1.14 ± 0.07 | 1.08 ± 0.12 | 1.07 ± 0.17 | 1.13 ± 0.13 | 1.08 ± 0.17 | 1.04 ± 0.15 | 0.93 ± 0.13
H7BYW5 and related entries (UniProt P31321) | 0.997 ± 0.11 | 1.06 ± 0.1 | 1.04 ± 0.066 | 1.06 ± 0.031 | 1.09 ± 0.023 | 1.01 ± 0.045 | 1.12 ± 0.041 | 1.014 ± 0.0086
H3BPB8 and related entries (UniProt P34949) | 0.967 ± 0.098 | 1.02 ± 0.1 | 0.995 ± 0.15 | 0.991 ± 0.098 | 0.978 ± 0.15 | 0.94 ± 0.097 | 0.943 ± 0.13 | 0.945 ± 0.11
H3BVG0 and related entries (UniProt Q8N1F7) | 0.971 ± 0.035 | 0.999 ± 0.043 | 0.937 ± 0.032 | 0.9515 ± 0.0053 | 0.961 ± 0.015 | 0.998 ± 0.032 | 0.976 ± 0.058 | 1.02 ± 0.042
J3KPP4 and related entries (UniProt O95232) | 1.13 ± 0.027 | 1.45 ± 0.062 | 1.54 ± 0.1 | 1.54 ± 0.095 | 1.56 ± 0.12 | 1.63 ± 0.13 | 1.72 ± 0.19 | 1.74 ± 0.18
I3L182 and related entries (UniProt Q9UQ35) | 1.03 ± 0.029 | 1.07 ± 0.036 | 1.179 ± 0.0078 | 1.13 ± 0.069 | 1.04 ± 0.11 | 1.03 ± 0.1 | 1.07 ± 0.17 | 1.05 ± 0.21
K4DI93 (UniProt Q13620) | 1.05 ± 0.094 | 1.05 ± 0.099 | 0.96 ± 0.089 | 0.975 ± 0.13 | 0.95 ± 0.12 | 0.942 ± 0.086 | 0.919 ± 0.07 | 0.902 ± 0.085
K7EKW4 and related entries (UniProt Q96AB3) | 1.01 ± 0.042 | 0.969 ± 0.025 | 0.901 ± 0.054 | 0.949 ± 0.056 | 0.915 ± 0.039 | 0.871 ± 0.026 | 0.859 ± 0.075 | 0.871 ± 0.083
K7ER15 and related entries (UniProt Q9H0R4) | 0.969 ± 0.1 | 0.99 ± 0.019 | 0.893 ± 0.081 | 0.841 ± 0.056 | 0.778 ± 0.13 | 0.827 ± 0.044 | 0.78 ± 0.15 | 0.786 ± 0.067
K7EP14 and related entries (UniProt P07992) | 0.867 ± 0.027 | 0.881 ± 0.036 | 0.919 ± 0.082 | 0.929 ± 0.016 | 0.879 ± 0.029 | 0.934 ± 0.026 | 0.867 ± 0.045 | 0.909 ± 0.038
H3BLT9 and related entries (UniProt Q7RTR2) | 1.06 ± 0.066 | 1.05 ± 0.066 | 1 ± 0.069 | 1.04 ± 0.078 | 1.02 ± 0.035 | 1.03 ± 0.039 | 1.05 ± 0.02 | 0.995 ± 0.06
K7ES11 and related entries (UniProt Q9C0C9) | 0.984 ± 0.043 | 0.981 ± 0.037 | 0.965 ± 0.028 | 0.95 ± 0.029 | 0.944 ± 0.048 | 0.952 ± 0.038 | 0.959 ± 0.026 | 0.946 ± 0.029
H0Y4W2 and related entries (UniProt Q9Y4A5) | 1.066 ± 0.0081 | 1.07 ± 0.11 | 1.07 ± 0.096 | 1.15 ± 0.17 | 1.25 ± 0.25 | 1.16 ± 0.21 | 1.19 ± 0.15 | 1.15 ± 0.12
K7EP90 and related entries (UniProt Q9BTD8) | 1.03 ± 0.096 | 1.03 ± 0.061 | 1.12 ± 0.11 | 1.17 ± 0.11 | 1.17 ± 0.14 | 1.16 ± 0.1 | 1.15 ± 0.12 | 1.21 ± 0.13
H0YE91 and related entries (UniProt Q15782) | 1.03 ± 0.068 | 1.07 ± 0.11 | 1.13 ± 0.15 | 1.15 ± 0.056 | 1.186 ± 0.0073 | 1.153 ± 0.0023 | 1.2 ± 0.089 | 1.114 ± 0.011
H0Y8X4 and related entries (UniProt O43598) | 0.856 ± 0.12 | 0.842 ± 0.15 | 0.823 ± 0.16 | 0.834 ± 0.13 | 0.849 ± 0.15 | 0.823 ± 0.14 | 0.78 ± 0.13 | 0.807 ± 0.12
I6L8B7 and related entries (UniProt Q01469) | 0.863 ± 0.057 | 0.927 ± 0.061 | 0.834 ± 0.071 | 0.821 ± 0.065 | 0.789 ± 0.078 | 0.82 ± 0.06 | 0.795 ± 0.088 | 0.811 ± 0.085
H7C488 and related entries (UniProt Q9NQ48) | 0.87 ± 0.13 | 0.797 ± 0.028 | 1.04 ± 0.17 | 1.05 ± 0.073 | 1.02 ± 0.14 | 1.01 ± 0.088 | 0.917 ± 0.18 | 1.16 ± 0.31
J3QS41 and related entries (UniProt P42694) | 1.04 ± 0.024 | 1.06 ± 0.024 | 1.06 ± 0.049 | 1.032 ± 0.01 | 1.06 ± 0.012 | 1.06 ± 0.034 | 1.09 ± 0.025 | 1.05 ± 0.037
H0YK61 and related entries (UniProt Q5J8M3) | 0.947 ± 0.014 | 1.012 ± 0.0041 | 1.03 ± 0.092 | 0.999 ± 0.038 | 0.956 ± 0.042 | 0.961 ± 0.029 | 1.07 ± 0.018 | 0.981 ± 0.033
H3BRE8 and related entries (UniProt Q9BWH6) | 1.02 ± 0.038 | 1.02 ± 0.11 | 1.02 ± 0.074 | 1.01 ± 0.071 | 1.05 ± 0.032 | 1.04 ± 0.051 | 1.05 ± 0.083 | 1.05 ± 0.093
H0YJ17 and related entries (UniProt Q8NEJ9) | 0.963 ± 0.092 | 0.938 ± 0.16 | 1.21 ± 0.14 | 1.32 ± 0.032 | 1.35 ± 0.071 | 1.49 ± 0.067 | 1.31 ± 0.19 | 1.67 ± 0.091
H0Y9P9 and related entries (UniProt Q9H8P0) | 1.01 ± 0.037 | 1.06 ± 0.023 | 0.949 ± 0.074 | 1.02 ± 0.054 | 0.979 ± 0.023 | 0.94459 ± 0.00082 | 0.858 ± 0.018 | 0.897 ± 0.053
J3KTE4 and related entries (UniProt P84098) | 0.99 ± 0.035 | 1.06 ± 0.03 | 1.07 ± 0.056 | 1.05 ± 0.071 | 0.976 ± 0.12 | 0.962 ± 0.093 | 0.908 ± 0.15 | 1.02 ± 0.19
J3KNP4 and related entries (UniProt Q9NPR2) | 1.02 ± 0.015 | 0.938 ± 0.038 | 0.98 ± 0.025 | 0.966 ± 0.058 | 0.935 ± 0.063 | 0.913 ± 0.034 | 0.982 ± 0.045 | 0.985 ± 0.035

Some values from the results shown:
Under NP40-soluble protein abundance (concentration: 0.5mM), H7BYW5 and related entries (UniProt P31321) is entered as 1.06 ± 0.1
Under NP40-soluble protein abundance (concentration: 4mM), I6L8B7 and related entries (UniProt Q01469) is entered as 0.789 ± 0.078
